According to paper PMC9455263:
These are yes or no findings as the source states them, for the method shown. Binding seen in cells or lysates may run through a third protein. Some binding calls cover weakened binding; strength is not graded here.

Protein sequences, listed by entry. Tags and fused reporters are not part of them. Lines headed by an entry give the natural chain unless they say otherwise; changes in a name come on top.
UniProt P06401: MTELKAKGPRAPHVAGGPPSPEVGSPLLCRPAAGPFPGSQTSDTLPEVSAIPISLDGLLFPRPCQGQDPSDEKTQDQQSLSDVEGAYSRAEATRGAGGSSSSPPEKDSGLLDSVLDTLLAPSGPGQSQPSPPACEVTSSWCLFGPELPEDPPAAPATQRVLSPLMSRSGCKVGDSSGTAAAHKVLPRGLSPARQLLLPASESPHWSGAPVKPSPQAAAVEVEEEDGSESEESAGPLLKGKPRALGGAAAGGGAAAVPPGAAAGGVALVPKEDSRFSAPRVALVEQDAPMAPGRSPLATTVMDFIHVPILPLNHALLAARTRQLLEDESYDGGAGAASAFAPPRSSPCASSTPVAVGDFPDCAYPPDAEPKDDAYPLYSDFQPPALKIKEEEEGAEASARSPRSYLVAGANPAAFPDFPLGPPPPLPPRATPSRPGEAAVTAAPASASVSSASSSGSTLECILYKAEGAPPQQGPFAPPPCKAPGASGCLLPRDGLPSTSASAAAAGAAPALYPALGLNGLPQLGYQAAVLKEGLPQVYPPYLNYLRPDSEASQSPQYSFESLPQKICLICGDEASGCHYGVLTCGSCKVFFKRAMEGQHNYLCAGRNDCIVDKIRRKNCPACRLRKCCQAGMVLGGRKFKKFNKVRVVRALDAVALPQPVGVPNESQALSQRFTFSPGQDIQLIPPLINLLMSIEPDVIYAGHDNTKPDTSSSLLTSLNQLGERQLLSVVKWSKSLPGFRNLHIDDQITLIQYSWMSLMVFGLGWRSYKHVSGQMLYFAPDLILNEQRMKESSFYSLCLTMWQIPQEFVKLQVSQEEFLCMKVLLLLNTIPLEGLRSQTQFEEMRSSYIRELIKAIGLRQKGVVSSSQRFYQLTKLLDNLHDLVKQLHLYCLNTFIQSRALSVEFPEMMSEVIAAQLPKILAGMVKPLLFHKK
UniProt Q99873: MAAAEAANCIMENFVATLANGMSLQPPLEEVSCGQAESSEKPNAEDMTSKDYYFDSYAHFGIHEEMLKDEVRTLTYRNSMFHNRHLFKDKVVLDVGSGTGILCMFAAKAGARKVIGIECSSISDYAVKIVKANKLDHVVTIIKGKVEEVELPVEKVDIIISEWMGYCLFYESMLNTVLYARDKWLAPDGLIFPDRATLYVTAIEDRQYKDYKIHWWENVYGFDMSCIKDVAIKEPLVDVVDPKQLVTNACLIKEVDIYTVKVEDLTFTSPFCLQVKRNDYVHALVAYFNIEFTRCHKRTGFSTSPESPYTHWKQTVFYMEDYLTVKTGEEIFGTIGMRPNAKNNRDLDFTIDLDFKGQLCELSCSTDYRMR
UniProt Q13185: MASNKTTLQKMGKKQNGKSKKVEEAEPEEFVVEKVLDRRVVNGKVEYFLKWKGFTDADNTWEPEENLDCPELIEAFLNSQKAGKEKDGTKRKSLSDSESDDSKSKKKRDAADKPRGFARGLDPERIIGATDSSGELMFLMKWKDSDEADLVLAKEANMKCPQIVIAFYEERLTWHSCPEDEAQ

Tests used:
[1] = target: progesterone receptor (PR), unliganded (human (endogenous in T47D)) (UniProt P06401); assay: co-IP; endogenous proteins; whole-cell extracts (RIPA buffer, 1 mg protein) of T47D cells deprived of steroids 48 h and serum-starved 24 h; IP with anti-PR, anti-PRMT1 or anti-HP1γ antibody or control IgG overnight at 4 °C, protein A agarose, immunoblot
[2] = target: protein arginine methyltransferase 1 (PRMT1) (human (endogenous in T47D)) (UniProt Q99873); assay: as above
[3] = target: progesterone receptor (PR), unliganded (human (endogenous in T47D)) (UniProt P06401); assay: proximity ligation; Duolink in situ PLA on endogenous proteins in methanol-fixed T47D cells deprived of steroids 48 h and serum-starved 24 h; pairs of primary antibodies; cells transfected with siNS or with siRNAs against PR, PRMT1, HP1γ or BRCA1 as specificity controls
[4] = target: protein arginine methyltransferase 1 (PRMT1) (human (endogenous in T47D)) (UniProt Q99873); assay: as above

Row | binding [1] | binding [2] | binding [3] | binding [4] | Substance
1 | binds | – | – | – | protein arginine methyltransferase 1 (PRMT1) (from UniProt Q99873 1-371) (enzyme)
2 | binds | binds | binds | binds | heterochromatin protein 1γ (HP1γ) (from UniProt Q13185 1-183)
